# Data taken from PubChem BioAssay AID651640 (Broad Institute, 2012).
# About 6,000 (1.7%) of roughly 350,000 compounds were called active. Inconclusive results, whose numbers are uncertain, are shown with a selection of clear calls. Rule as the data show it: active = CPE inhibition above about 20% (passing the limit was not always enough); inconclusive = no clear call, values can overlap the other calls; tested in BHK-21 cells. More than one record can exist for a structure, and the calls need not agree.
# Test: protection of cells from dengue 2 killing – plate reader, single concentration, primary screen (AID 651640);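 also: 0% = median of neutral control wells and 100% = median of positive control wells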
# Settings: DENV2-infected cells, cytopathic effect rescue, at 9.99 µM, active compounds read high
row,SMILES,CPE inhibition
1,Cn1c(=O)c(=O)n(C)c2cc(S(=O)(=O)CCC(=O)Nc3ccccc3C(F)(F)F)ccc21,inconclusive: 30.1%
2,C[C@@H]1CN([C@H](C)CO)C(=O)c2cccc(NC(=O)CCCCCC(=O)Nc3ccccc3N)c2O[C@@H]1CN(C)C(=O)Nc1ccc2c(c1)OCO2,inactive: 0.107%
3,COc1ccccc1CNC(=O)C[C@@H]1C=C[C@H](NC(=O)CN(C)C)[C@H](CO)O1,inactive: -3.32%
4,C[C@@H]1CCCCO[C@H](CN(C)S(=O)(=O)c2ccccc2)[C@H](C)CN([C@H](C)CO)C(=O)c2cc(NC(=O)Nc3ccc(C(F)(F)F)cc3)ccc2O1,inconclusive: 45.4%
5,CS(=O)(=O)N1CC(=O)N2[C@@H](CO)[C@H](c3ccc(C#Cc4ccc(F)cc4)cc3)[C@@H]2C1,inconclusive: 20.2%
6,COc1cc(C(N)=O)cc(Cl)c1OCc1ccccc1,inconclusive: 26.1%
7,CN1C(C(=O)Nc2ccccn2)=C(O)c2ccccc2S1(=O)=O,inconclusive: 28.2%
8,CCOc1ccccc1NC(=O)CSc1n[nH]c(=O)n1-c1ccccc1,inconclusive: 25.6%
9,CO[C@@H]1CN(C)C(=O)c2ccc(NC(=O)C3CC3)cc2OC[C@H](C)N(C(=O)Cc2ccccn2)C[C@@H]1C,inconclusive: 37.5%
10,C[C@H]1CN([C@@H](C)CO)C(=O)c2cccc(NC(=O)c3ccncc3)c2O[C@@H]1CN(C)S(=O)(=O)c1cn(C)cn1,inactive: -2.28%
11,C[C@@H]1CN([C@@H](C)CO)C(=O)c2cccc(NC(=O)Nc3ccc4c(c3)OCO4)c2O[C@H]1CN(C)Cc1ccc2c(c1)OCO2,active: 22.3%
12,Cc1ccc(NC(=S)NNc2ccc(C(=O)O)cc2[N+](=O)[O-])cc1C,inconclusive: 50.5%
13,C[C@H](CO)N1C[C@H](C)[C@@H](CN(C)C(=O)C2CCCCC2)Oc2ncc(C3=CCCC3)cc2C1=O,inconclusive: 38%
14,CC(C)C1C(=O)N(Cc2cn(CCC3OCCO3)nn2)CCS(=O)(=O)N1Cc1ccc(-c2ccc(Cl)c(Cl)c2)cc1 (stereo unspecified),active: 24.7%
15,COc1ccc(S(=O)(=O)N(C)C[C@H]2OCCCC[C@H](C)Oc3ccc(NS(=O)(=O)c4c(C)noc4C)cc3C(=O)N([C@H](C)CO)C[C@H]2C)cc1,inconclusive: 55.9%
16,CCCCn1c(CN2CCN(c3cccc(Cl)c3)CC2)nc2c1c(=O)[nH]c(=O)n2C,inactive: -4.19%
17,CC(C)CC(COCc1ccc(Cl)cc1)N1CCN(C(=O)c2ccc(C(F)(F)F)cc2)CCC1=O (stereo unspecified),active: 49.9%
18,COc1cc(NC(=O)COC(=O)CNC(=O)c2ccc(C)cc2)c(C)cc1[N+](=O)[O-],inactive: 1.5%
19,O=C(C[C@@H]1CC[C@H](NC(=O)Nc2ccc3c(c2)OCO3)[C@@H](CO)O1)NCc1ccc2c(c1)OCO2,active: 24.3%
20,C[C@H](CO)N1C[C@H](C)[C@@H](CN(C)Cc2ccc3c(c2)OCO3)Oc2c(NC(=O)C3CCCCC3)cccc2C1=O,active: 122%
21,O=C(c1ccncc1)N1C[C@H]2[C@@H](c3ccccc31)[C@H](CO)N2C(=O)c1ccccc1F,active: 43.4%
22,Cc1ccc(S(=O)(=O)N(C)C[C@H]2Oc3cc(C#Cc4ccncc4)ccc3S(=O)(=O)N([C@@H](C)CO)C[C@H]2C)cc1,active: 64.1%
23,COc1ccc2c(c1)/C(=C/c1cc(OC)c(OC)c(OC)c1)C(=O)N2,active: 29.5%
24,CC(Oc1ccc2ccccc2c1)C(=O)NNC(=O)Nc1ccccc1 (stereo unspecified),inconclusive: 49.5%

# Molecules shown so far that contain two or more sulfur atoms, in the order listed:
row,SMILES,CPE inhibition
15,COc1ccc(S(=O)(=O)N(C)C[C@H]2OCCCC[C@H](C)Oc3ccc(NS(=O)(=O)c4c(C)noc4C)cc3C(=O)N([C@H](C)CO)C[C@H]2C)cc1,inconclusive: 55.9%
22,Cc1ccc(S(=O)(=O)N(C)C[C@H]2Oc3cc(C#Cc4ccncc4)ccc3S(=O)(=O)N([C@@H](C)CO)C[C@H]2C)cc1,active: 64.1%

# Further structures:

row,SMILES,CPE inhibition
1,COc1ccc2sc(-c3ccccc3OC)c(-c3ccc(O)cc3)c2c1,inconclusive: 25.1%
2,CCCCCCn1cc(CN2CC(N3CCCCC3)CS2(=O)=O)nn1 (stereo unspecified),inconclusive: 61.1%
3,Cn1cnc(S(=O)(=O)N2CC[C@@H]3[C@H](CO)Nc4ccc(-c5ccccc5F)cc4[C@@H]32)c1,inactive: -5.52%
4,CSc1nc2c(=S)[nH]c(=S)[nH]c2s1,active: 87.3%
5,CCN1[C@H](C(=O)N(C)C)[C@@H](CO)[C@@H]2Cn3c(ccc(-c4ccc(F)cc4)c3=O)[C@@H]21,inactive: 7.49%
6,CN(C[C@H](Cc1ccccc1)N(C[C@@H](CC1CCCCC1)N(CCc1ccccc1)N=O)N=O)N=O,active: 57.1%
7,C#Cc1ccc(NC(=O)C2(C)CCN2C(=O)Cc2ccc(C(C)(C)C)cc2)cc1 (stereo unspecified),inconclusive: 48%
8,CCN(CC)C(=O)Cn1cc(S(=O)(=O)CC(=O)Nc2cc(C)on2)c2ccccc21,inconclusive: 38.7%
9,O=C(O)C[C@@H]1CC[C@H]2[C@@H](COC[C@H](O)CN2S(=O)(=O)c2ccc(F)cc2)O1,inactive: 5.95%
10,Cc1ccc(S(=O)(=O)NCCC(=O)Nc2cccc(S(=O)(=O)N3CCCC3)c2)cc1C,inconclusive: 30.6%
11,COc1ccc(CCNC(=O)C(=O)NCC2OCCCN2S(=O)(=O)c2cc(C)ccc2C)cc1 (stereo unspecified),inconclusive: 39.4%
12,CC(=O)c1c(OC(=O)c2cccc(Cl)c2)c2ccccc2n1C,inconclusive: 20.8%
13,CCOC(=O)[C@]12CCC=C1N(Cc1ccccc1)C(=O)[C@H](CC(=O)N1CCOCC1)C2,inconclusive: 40.2%
14,Cc1noc(C)c1S(=O)(=O)N(C)C[C@H]1OCCCC[C@H](C)Oc2ccc(NS(=O)(=O)c3ccc(Cl)cc3)cc2C(=O)N([C@@H](C)CO)C[C@@H]1C,inactive: 14.4%
15,C[C@H]1CN([C@@H](C)CO)C(=O)c2cccc(NC(=O)C3CC3)c2O[C@@H]1CN(C)C(=O)NC1CCCCC1,active: 54.1%
16,CCOc1ccc(NC(=O)c2ccc3c(c2)S(=O)(=O)N=C2CCCCCN23)cc1,inconclusive: 28.6%
17,C=CCn1c(C)c(C(C)=O)cc(NC(=O)c2ccccc2)c1=O,inconclusive: 32%
18,O=C(COC(=O)/C=C/c1cccc(F)c1)NC(=O)NC1CCCC1,inconclusive: 46.7%
19,COC(=O)C1=C(C)n2cnnc2NC1c1ccc(Cl)cc1 (stereo unspecified),inconclusive: 37.8%
20,COc1ccc(NC(=O)Nc2ccc3c(c2)CC(=O)N([C@@H](C)CO)C[C@H](C)[C@H](CN(C)Cc2ccncc2)O3)cc1,inconclusive: 58.2%
21,CCSc1nc2sc3c(c2c(=O)n1CC)CCC3,active: 39.8%
22,C/C=C/c1ccc([C@H]2[C@@H](CO)N[C@@H]2CNC(=O)C2CCC2)cc1,active: 34.1%
23,O=C(c1ccco1)N1CCN(C(=O)c2cc3ccccc3oc2=O)CC1,inconclusive: 30.3%
24,Cc1ccc2c(c1)CO[C@]21O[C@H](CCO)C[C@H](O)[C@H]1O,active: 44.3%

# Molecules shown so far that contain a nitro group on carbon:
row,SMILES,CPE inhibition
12,Cc1ccc(NC(=S)NNc2ccc(C(=O)O)cc2[N+](=O)[O-])cc1C,inconclusive: 50.5%
18,COc1cc(NC(=O)COC(=O)CNC(=O)c2ccc(C)cc2)c(C)cc1[N+](=O)[O-],inactive: 1.5%

# Next results.

row,SMILES,CPE inhibition
1,CCSc1ccc([C@@H]2[C@@H]3C(=O)N(CC)C(=O)[C@@H]3[C@]3(C(=O)OC)CCCCN23)cc1,inconclusive: 82.5%
2,C[C@@H]1CN([C@@H](C)CO)C(=O)c2cc(NC(=O)Cc3ccccc3)ccc2O[C@@H](C)CCCCO[C@@H]1CN(C)CC1CCCCC1,active: 25.7%
3,CCc1ncc(C)nc1CC,inconclusive: 63.8%
4,C[C@@H]1CCCCO[C@@H](CN(C)CC2CC2)[C@@H](C)CN([C@H](C)CO)C(=O)c2cc(NC(=O)CCC(F)(F)F)ccc2O1,inactive: -4.86%
5,CO[C@H]1CN(C)C(=O)c2cc(NS(C)(=O)=O)ccc2OC[C@@H](C)N(CCC(F)(F)F)C[C@@H]1C,inconclusive: 33.2%
6,CCCNC(=O)N1[C@H](CO)[C@H](c2ccc(/C=C/c3ccccc3)cc2)[C@@H]1C#N,inconclusive: 25.5%
7,O=C(Nc1nc2ccccc2s1)c1ccc2sc([C@H]3C[C@H](O)[C@@H](CO)O3)nc2c1,inconclusive: 44.9%
8,CC=Cc1ccc2n(c1=O)C[C@H]1[C@H](CO)[C@@H](C(=O)N3CCc4ccccc4C3)N(C(=O)C3CCC3)[C@@H]21 (mixture of isomers),active: 61.6%
9,O=C(NC1CCCc2ccccc21)c1cccc(S(=O)(=O)N2CCOCC2)c1 (stereo unspecified),inconclusive: 31%
10,Clc1nc(Cl)c2ncn(-c3ccccc3)c2n1,inactive: -1.84%
11,CCCNC(=O)C[C@@H]1CC[C@H]2[C@H](COc3ccc(NC(=O)c4cccc(C(F)(F)F)c4)cc3C(=O)N2C)O1,inconclusive: 21.5%
12,CCCC(=O)Nc1ccc2c(c1)C(=O)N(C)[C@H]1CC[C@H](CC(=O)NCCCN(C)C)O[C@H]1CO2,active: 48.8%
13,COc1ccccc1C#Cc1ccc2c(c1)[C@@H]1[C@@H](CCN1S(=O)(=O)c1ccc(F)cc1)[C@@H](CO)N2,active: 29.3%
14,CCc1ccc(OC2(C)CCN(Cc3ccccc3OC(F)F)C2)cc1 (stereo unspecified),inconclusive: 61.4%
15,Cc1ccc(S(=O)(=O)N[C@@H]2C=C[C@@H](CC(=O)NC3CCCCC3)O[C@H]2CO)cc1,inactive: -0.002%
16,Cc1c(N=NC2=C(O)CCCC2=O)c(=O)n(-c2ccccc2)n1C,inactive: 1.28%
17,O=C1CC(c2ccccc2)CC(O)=C1C=Nc1ccccc1O (stereo unspecified),inactive: -5.16%
18,C[C@@H]1CN([C@@H](C)CO)C(=O)c2cc(-c3cccc(F)c3)cnc2O[C@H]1CN(C)C(=O)Nc1ccccc1F,inconclusive: 2.53%
19,C[C@H](CO)N1C[C@H](C)[C@H](CN(C)C(=O)Nc2ccc3c(c2)OCO3)Oc2c(NS(=O)(=O)c3ccccc3)cccc2C1=O,inactive: -4.9%
20,CS(=O)(=O)N(CC(=O)N1CCCCCC1)c1cc(Cl)ccc1Cl,inconclusive: 32.9%
21,COc1cc(NC(=O)c2ccc(C(=O)c3ccccc3)cc2)cc(OC)c1OC,inconclusive: 23.8%
22,CCCCCC(=O)NC(=S)Nc1cccc(C(C)=O)c1,inactive: -0.631%
23,C[C@@H]1CCCCO[C@@H](CN(C)C(=O)Nc2ccc(F)cc2)[C@@H](C)CN([C@H](C)CO)C(=O)c2cc(NS(=O)(=O)c3ccccc3)ccc2O1,active: 31.3%
